{"source": "patent US20260048145A1", "about": "“COMPOSITIONS AND METHODS FOR TREATING DRUG ADDICTION” (The Children's Medical Center Corporation, priority 2022, published 2026)", "key": {"NAc Tac2+ neurons [1]": {"test_system": "NAc Tac2+ neurons", "assay": "Single-cell calcium imaging of Tac2+ neurons following acute cocaine injection", "format": "in vivo, mice", "settings": "not seen with saline", "description": "To explore a potential role for Tac2^+ neurons in drug-related behavior, Tac2 neuronal activity was monitored using single-cell calcium imaging upon psychostimulant drug (cocaine) treatment. To this end, GCaMP6m, which reports calcium fluctuations and serves as a proxy for neuronal activity, was virally delivered into the NAc of Tac2-Cre mice using known techniques^41, and the fluorescence signal was monitored by a skull-attached miniaturized microscope through a gradient-index (GRIN) lens implanted above the virus injection site (FIG. 2B, FIGS. 1C-1D). […] After extracting calcium signal traces and corresponding calcium signal transients of individual neurons from raw imaging video (FIG. 2C, FIG. 1E), the Tac2 neuronal response to saline and cocaine administration was analyzed. […] To further validate these findings, calcium activity traces were analyzed before and after saline or cocaine injection. […]\nTwo weeks after GRIN lens implantation surgery, a baseplate was implanted to mount the miniature microscope and to check the fluorescence signal. […]\nMice were tested in the homecages and were pre-habituated in the test room and they received 3-day saline injection to reduce stress. […] Prior to injection, 10 minute baseline was recorded, then mice were intraperitoneally injected with saline, and a 10 minute recording was performed after the injection. […]"}, "NAc Tac2+ neurons [2]": {"test_system": "NAc Tac2+ neurons", "assay": "Single-cell calcium imaging during cocaine-conditioned place preference", "format": "in vivo, mice", "settings": "cocaine 15 mg/kg, 3 days conditioning", "description": "Next, the dynamics of Tac2 neuronal activity was analyzed during cocaine reward-contextual association. To this end, single-cell calcium imaging was applied to a cocaine-conditioned place preference (CPP) test (FIG. 3A). In the pre-conditioning session, mice were allowed to freely explore the two chambers with differential contextual patterns while calcium signal being recorded. In the conditioning sessions, mice were given alternate saline and cocaine (15 mg/kg) injections (6 hours apart) and were confined to a specific chamber paired with saline or cocaine. In the post-conditioning session, mice were again allowed to freely explore the two chambers while calcium signal being recorded (FIG. 3A). […] To further validate these findings, calcium activity traces were analyzed when mice stayed in the saline chamber or cocaine chamber. […] Moreover, by focusing on the short period around the mice entering the cocaine chamber (−5 seconds to 5 seconds, regarding the entering as 0 second), it was determined that the neuronal activity of the cocaine chamber excited neurons (neurons with […] calcium signal in cocaine chamber) increased rapidly when mice entered the cocaine chamber, while the cocaine chamber inhibited neurons (neurons with […] calcium signal in cocaine chamber) decreased their activity when mice entered the cocaine chamber (FIGS. 3F-3G). […]"}}, "note": "For at least one compound, name, drawing or mass did not settle the structure.", "data": [{"smiles": "COC(=O)[C@H]1[C@@H](OC(=O)c2ccccc2)C[C@@H]2CC[C@H]1N2C", "note": "[cocaine]", "values": [{"measurement": "overall Tac2 neuronal activity following cocaine injection", "setting": "NAc Tac2+ neurons [1]", "value": "overall decrease"}, {"measurement": "preference to the cocaine chamber after conditioning", "setting": "NAc Tac2+ neurons [2]", "value": "significant preference to the cocaine chamber"}]}]}
